Data on 54 compounds can be found in the supplement of paper PMC9226226.

Values joined by “and” are separate entries in the source; they are usually repeats but may differ in a detail not shown here. Equal values may be shown once. ± gives the standard deviation of the averaged measurements. This is one part of the list. Some well-known active drugs show little effect in this data set, so a weak value is uncertain.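 The cells are human mesenchymal stem cells that lack the Werner syndrome gene and age prematurely. Growth was tracked by automated live-cell imaging in three biological repeats, and the twenty drugs that most raised growth over vehicle were taken forward, with no fixed cutoff stated.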

The test concerns Werner syndrome hMSCs (WRN-/-). The test can be described thus: relative cell density (fold change vs vehicle control); higher = more proliferation (geroprotective). The conditions noted are these: concentration (umol/L): 1, 6 days.

For the setting “vehicle: DMSO”, `COc1ncnc(NS(=O)(=O)c2ccc(N)cc2)c1OC` showed a relative cell density of 1.18.
In turn, `CC(=O)OCC(=O)[C@@]1(O)[C@H](C)C[C@H]2[C@@H]3CCC4=CC(=O)C=C[C@]4(C)[C@@]3(F)[C@@H](O)C[C@@]21C` showed a relative cell density (vehicle: DMSO) of 1.09.
The same measure, in the same setting: the value for `COc1ccc(C(=O)c2ccccc2)c(O)c1` was 1.18.
`COc1c(N2C[C@@H]3CCCN[C@@H]3C2)c(F)cc2c(=O)c(C(=O)O)cn(C3CC3)c12` yielded a relative cell density (vehicle: DMSO) of 1.34.
Consider `COc1cc(C(C)=O)ccc1OCCCN1CCC(c2noc3cc(F)ccc23)CC1`, for which the relative cell density (vehicle: DMSO) was found to be 1.45.
Consider `CCCC1O[C@@H]2C[C@H]3[C@@H]4CCC5=CC(=O)C=C[C@]5(C)[C@H]4[C@@H](O)C[C@]3(C)[C@]2(C(=O)CO)O1` (some centres undefined), for which, for the setting “vehicle: DMSO”, the relative cell density came to 1.09.
On the same count and under the same terms, the value for `CC(C(=O)O)c1cccc(C(=O)c2ccccc2)c1` (centres undefined) was 0.933; that for `COC(=O)N[C@H](C(=O)N1CCC[C@H]1c1ncc(-c2ccc(-c3ccc(-c4cnc([C@@H]5CCCN5C(=O)[C@@H](NC(=O)OC)C(C)C)[nH]4)cc3)cc2)[nH]1)C(C)C` was 1.07.
`Cc1cc(C)c2c(c1)[C@@H](N(Cc1cc(C(F)(F)F)cc(C(F)(F)F)c1)c1nnn(C)n1)CCCN2C[C@H]1CC[C@H](C(=O)O)CC1` displayed a relative cell density (vehicle: DMSO) of 1.47.
For the compound `O=NN(CCCl)C(=O)NCCCl`, the relative cell density (vehicle: DMSO) turned out to be 0.975.
The same measure, in the same setting: the figure for `CCOC(=O)c1ncn2c1CN(C)C(=O)c1cc(F)ccc1-2` is 1.08; for `C[C@@H]1CN(c2c(F)c(N)c3c(=O)c(C(=O)O)cn(C4CC4)c3c2F)C[C@H](C)N1` it is 1.19.
Turning to `CCn1cc(C(=O)O)c(=O)c2cc(F)c(N3CCN(C)CC3)cc21`, the relative cell density (vehicle: DMSO) was 1.31 and 1.19.
In turn, `OCc1ccccc1` had a relative cell density (vehicle: DMSO) of 1.07.
`CNC(=C[N+](=O)[O-])NCCSCc1csc(CN(C)C)n1` showed a relative cell density (vehicle: DMSO) of 0.896.
The compound `CC(C)CN(C[C@@H](O)[C@H](Cc1ccccc1)NC(=O)O[C@H]1CCOC1)S(=O)(=O)c1ccc(N)cc1` registered a relative cell density (vehicle: DMSO) of 1.06.
The same measure, in the same setting: the value for `CCC1=C[C@@H]2CN(C1)Cc1c([nH]c3ccccc13)[C@@](C(=O)OC)(c1cc3c(cc1OC)N(C)[C@H]1[C@@](O)(C(=O)OC)[C@H](OC(C)=O)[C@]4(CC)C=CCN5CC[C@]31[C@@H]54)C2` was 1.04; that for `CS(=O)(=O)Nc1ccc([N+](=O)[O-])cc1Oc1ccccc1` was 0.816.
Regarding `CCn1cc(C(=O)O)c(=O)c2cc(F)c(N3CCNC(C)C3)c(F)c21` (centres undefined), where the note is “vehicle: Water”, the relative cell density came to 1.33.
On to `CCOC(=O)CCC(=O)O[C@H]1[C@H](O[C@@H]2[C@@H](C)[C@H](O[C@H]3C[C@@](C)(OC)[C@@H](O)[C@H](C)O3)[C@@H](C)C(=O)O[C@H](CC)[C@@](C)(O)[C@H](O)[C@@H](C)C(=O)[C@H](C)C[C@@]2(C)O)O[C@H](C)C[C@@H]1N(C)C`, for which the relative cell density (vehicle: DMSO) is 0.991.
Compound `C[C@]12C=CC(=O)C=C1CC[C@@H]1[C@@H]2C(=O)C[C@@]2(C)[C@H]1CC[C@]2(O)C(=O)CO` showed a relative cell density (vehicle: DMSO) of 1.04.
`CC1(C)[C@@H](O[C@H]2O[C@H](C(=O)O)[C@@H](O)[C@H](O)[C@H]2O[C@@H]2O[C@H](C(=O)O)[C@@H](O)[C@H](O)[C@H]2O)CC[C@]2(C)[C@H]3C(=O)C=C4[C@@H]5C[C@@](C)(C(=O)O)CC[C@]5(C)CC[C@@]4(C)[C@]3(C)CC[C@@H]12`: the relative cell density (vehicle: DMSO) amounted to 0.899.
`CC(C)(O/N=C(\C(=O)N[C@@H]1C(=O)N2C(C(=O)[O-])=C(C[n+]3ccccc3)CS[C@H]12)c1csc(N)n1)C(=O)O` registered a relative cell density (vehicle: Water) of 0.996 ± 0.047.
Regarding `CCc1c2c(nc3ccc(OC(=O)N4CCC(N5CCCCC5)CC4)cc13)-c1cc3c(c(=O)n1C2)COC(=O)[C@]3(O)CC`, for the setting “vehicle: DMSO”, the relative cell density was found to be 0.611.
Where the note is “vehicle: DMSO”, `CNCCC=C1c2ccccc2CCc2ccccc21` returned a relative cell density of 1.13.
Compound `C[C@H]1[C@H](NC(=O)/C(=N\OC(C)(C)C(=O)O)c2csc(N)n2)C(=O)N1S(=O)(=O)O` registered a relative cell density (vehicle: DMSO) of 1.53.
Consider `CCc1cc(C(N)=S)ccn1`, for which, under “vehicle: DMSO”, the relative cell density is 0.942.
On the same count and under the same terms, the figure for `CC(=O)Nc1c(I)c(NC(C)=O)c(I)c(C(=O)O)c1I` is 0.917.
Where the note is “vehicle: Water”, `NC(=O)c1ncn([C@@H]2O[C@H](CO)[C@@H](O)[C@H]2O)c1O` had a relative cell density of 0.72.
For `Cc1cn([C@@H]2C[C@@H](O)[C@H](CO)O2)c(=O)[nH]c1=O`, the relative cell density (vehicle: DMSO) was 1.08.
Under “vehicle: Water”, `CCOc1cc2ncc(C#N)c(Nc3ccc(OCc4ccccn4)c(Cl)c3)c2cc1NC(=O)/C=C/CN(C)C` displayed a relative cell density of 0.259.
Compound `O=C(N/N=C/c1ccc([N+](=O)[O-])o1)c1ccc(O)cc1` showed a relative cell density (vehicle: DMSO) of 1.11.
`CN(C)CCCOc1nn(Cc2ccccc2)c2ccccc12` showed a relative cell density (vehicle: DMSO) of 1.2.
As for `FC(F)(F)c1ccc(/C=C/c2nc(COc3ccc(CCCCn4ccnn4)cc3)co2)cc1`, the relative cell density (vehicle: DMSO) was 1.08.
Turning to `CC(Oc1cc(-c2cnn(C3CCNCC3)c2)cnc1N)c1c(Cl)ccc(F)c1Cl` (centres undefined), for the setting “vehicle: DMSO”, the relative cell density was 1.27.
On to `Nc1ccn(C[C@@H](CO)OCP(=O)(O)O)c(=O)n1`, for which, for the setting “vehicle: Water”, the relative cell density was determined as 0.753.
`CCCCC(=O)O[C@]1(C(=O)CO)[C@@H](C)C[C@H]2[C@@H]3CCC4=CC(=O)C=C[C@]4(C)[C@@]3(F)[C@@H](O)C[C@@]21C` gave a relative cell density (vehicle: DMSO) of 1.18.
The same measure, in the same setting: the value for `CC(=O)OCC(=O)[C@@]1(O)CC[C@H]2[C@@H]3CCC4=CC(=O)CC[C@]4(C)[C@H]3C(=O)C[C@@]21C` was 1.03; that for `OC[C@@H](O)[C@@H](O)[C@H](O)[C@@H](O)CO` was 1.01.
As to `NC(=O)[C@@H]1CC[C@@H]2CN1C(=O)N2OS(=O)(=O)O`, the relative cell density (vehicle: DMSO) is 1.02.
For `Oc1ccc(O)cc1`, the relative cell density (vehicle: DMSO) was determined as 1.39.
Take `COc1cc2nc(N3CCN(C(=O)C4CCCO4)CC3)nc(N)c2cc1OC` (centres undefined): the relative cell density (vehicle: DMSO) was 1.23 and 1.18.
Under “vehicle: Water”, `COc1ccc(C=Cc2cc(OC)c(OC)c(OC)c2)cc1OP(=O)(O)O` came in with a relative cell density of 0.32.
`CC(C)OC(=O)CCC/C=C\C[C@@H]1[C@@H](CC[C@@H](O)CCc2ccccc2)[C@H](O)C[C@@H]1O` showed a relative cell density (vehicle: Water) of 0.793.
`COc1cc(C)c(/C=C/C(C)=C/C=C/C(C)=C/C(=O)O)c(C)c1C` yielded a relative cell density (vehicle: DMSO) of 0.799.
On the same count and under the same terms, the value for `O=c1[nH]c(=O)n([C@H]2C[C@H](O)[C@@H](CO)O2)cc1F` was 1.14.
As for `CNNCc1ccc(C(=O)NC(C)C)cc1`, the relative cell density (vehicle: Water) worked out at 0.99.
`C[N+]1(C)CCC(=C(c2ccccc2)c2ccccc2)CC1` had a relative cell density (vehicle: DMSO) of 0.994.
Where the note is “vehicle: DMSO”, `CN(C)CCC=C1c2ccccc2C=Cc2ccccc21` registered a relative cell density of 1.04.
As to `CN(C)CCc1c[nH]c2ccc(C[C@H]3COC(=O)N3)cc12`, the relative cell density (vehicle: DMSO) worked out at 1.05.
On the same count and under the same terms, the value for `NC(=O)c1ncn([C@@H]2O[C@H](CO)[C@@H](O)[C@H]2O)c1N` was 1.01; that for `CC(c1cc2ccccc2s1)N(O)C(N)=O` (centres undefined) was 1.12.
The compound `CN(C)CCCN1c2ccccc2CCc2ccc(Cl)cc21` gave a relative cell density (vehicle: DMSO) of 1.
Where the note is “vehicle: DMSO”, `Nc1ccc(O)c(C(=O)O)c1` registered a relative cell density of 1.03.
